Source: ChEMBL document CHEMBL3988442, “University of Dundee, Small-Polar-MMV Screening Library” (2021).

Amino acid sequences for entries named in this document (tags omitted). Residues count along the entry.
UniProt P9WPC5, whole entry: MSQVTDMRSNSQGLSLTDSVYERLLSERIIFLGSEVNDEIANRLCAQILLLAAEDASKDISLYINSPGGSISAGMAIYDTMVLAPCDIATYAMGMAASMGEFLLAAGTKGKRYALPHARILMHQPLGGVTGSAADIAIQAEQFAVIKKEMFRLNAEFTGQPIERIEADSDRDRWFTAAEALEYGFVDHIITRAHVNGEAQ
UniProt P9WPC3, whole entry partner: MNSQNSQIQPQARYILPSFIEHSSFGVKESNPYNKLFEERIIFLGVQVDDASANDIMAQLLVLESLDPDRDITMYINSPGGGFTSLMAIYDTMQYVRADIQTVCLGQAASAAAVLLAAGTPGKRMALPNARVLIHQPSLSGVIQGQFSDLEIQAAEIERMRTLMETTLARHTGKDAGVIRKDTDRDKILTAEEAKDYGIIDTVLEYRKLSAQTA
UniProt Q8IDJ8, 1-583: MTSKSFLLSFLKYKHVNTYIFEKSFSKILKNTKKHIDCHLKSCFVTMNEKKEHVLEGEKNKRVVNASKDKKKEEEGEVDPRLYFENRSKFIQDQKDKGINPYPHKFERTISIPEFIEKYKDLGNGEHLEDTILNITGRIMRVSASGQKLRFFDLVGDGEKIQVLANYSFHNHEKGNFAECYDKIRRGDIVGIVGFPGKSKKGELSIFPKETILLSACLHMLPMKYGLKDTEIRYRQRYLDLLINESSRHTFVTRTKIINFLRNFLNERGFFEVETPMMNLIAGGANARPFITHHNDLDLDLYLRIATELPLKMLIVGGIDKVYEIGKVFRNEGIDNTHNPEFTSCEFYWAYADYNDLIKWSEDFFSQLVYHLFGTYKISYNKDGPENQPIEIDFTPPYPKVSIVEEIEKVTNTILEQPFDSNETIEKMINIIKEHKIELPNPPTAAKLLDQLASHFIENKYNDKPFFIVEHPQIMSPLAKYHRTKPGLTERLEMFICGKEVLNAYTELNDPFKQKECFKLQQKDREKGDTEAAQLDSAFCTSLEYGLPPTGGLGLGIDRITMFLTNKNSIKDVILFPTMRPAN
UniProt P9WFT3, whole entry: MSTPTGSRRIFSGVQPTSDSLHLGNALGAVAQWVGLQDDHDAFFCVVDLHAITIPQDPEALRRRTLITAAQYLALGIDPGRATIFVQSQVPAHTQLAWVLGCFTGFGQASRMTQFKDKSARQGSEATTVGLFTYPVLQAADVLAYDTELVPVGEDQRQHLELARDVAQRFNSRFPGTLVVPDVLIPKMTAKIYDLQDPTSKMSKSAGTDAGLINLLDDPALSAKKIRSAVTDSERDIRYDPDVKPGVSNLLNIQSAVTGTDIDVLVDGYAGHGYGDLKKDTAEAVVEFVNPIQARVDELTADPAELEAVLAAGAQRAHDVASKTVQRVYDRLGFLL
UniProt A4I591, 1-473: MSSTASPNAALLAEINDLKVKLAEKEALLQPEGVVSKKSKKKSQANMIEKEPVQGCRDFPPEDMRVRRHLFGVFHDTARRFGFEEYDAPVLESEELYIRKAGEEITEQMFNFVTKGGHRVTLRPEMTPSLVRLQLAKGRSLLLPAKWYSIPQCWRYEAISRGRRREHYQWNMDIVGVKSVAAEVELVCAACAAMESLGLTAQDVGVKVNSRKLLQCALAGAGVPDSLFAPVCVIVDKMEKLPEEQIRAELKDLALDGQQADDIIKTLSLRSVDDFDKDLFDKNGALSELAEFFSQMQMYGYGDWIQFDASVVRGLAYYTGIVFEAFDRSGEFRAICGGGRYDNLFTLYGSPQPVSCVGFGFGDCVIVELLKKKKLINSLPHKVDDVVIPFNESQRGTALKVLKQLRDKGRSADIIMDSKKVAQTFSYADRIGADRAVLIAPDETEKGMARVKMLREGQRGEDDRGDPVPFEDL
UniProt Q4DA54, 1-478: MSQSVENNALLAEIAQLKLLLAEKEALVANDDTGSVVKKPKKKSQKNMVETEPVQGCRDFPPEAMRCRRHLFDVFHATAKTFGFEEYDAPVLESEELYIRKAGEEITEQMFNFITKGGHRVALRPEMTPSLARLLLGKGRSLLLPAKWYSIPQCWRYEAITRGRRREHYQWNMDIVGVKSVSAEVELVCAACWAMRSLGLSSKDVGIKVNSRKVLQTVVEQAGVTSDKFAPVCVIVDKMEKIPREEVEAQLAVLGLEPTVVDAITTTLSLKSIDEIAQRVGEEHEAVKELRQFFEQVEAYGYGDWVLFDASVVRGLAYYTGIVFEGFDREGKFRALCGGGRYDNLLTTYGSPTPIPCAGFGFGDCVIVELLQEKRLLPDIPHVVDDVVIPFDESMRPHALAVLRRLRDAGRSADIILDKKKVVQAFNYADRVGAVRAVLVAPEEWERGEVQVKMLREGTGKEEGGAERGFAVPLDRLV

The filed quantity is “Percent Effect” (%).
How 0% and 100% were set is not recorded. Most values in the screen are low, and negative values occur.
Compounds were drawn at random from those tested, without regard to their results.
Two or more numbers in one place are separate tests of the same structure; such repeats can differ widely.
A dash means the value is not listed here; it may have been measured.

ClpP1P2: 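ClpP1P2, Mycobacterium tuberculosis (UniProt P9WPC5 and UniProt P9WPC3). Protease assay of ClpP1P2, read by the AMC dye that it sets free. Compounds at 50 µM. Higher reads as stronger inhibition, judged from the few compounds that gave an IC50. Most other retested compounds had strongly negative values. Size under these conditions: about 69,000 compounds, about 10 of them at 50% or above in at least one test.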
PfKRS1: 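Enzyme assay of the cytosolic lysyl-tRNA synthetase in 384-well plates, read by luminescence. Target: Lysine-tRNA ligase, Plasmodium falciparum 3D7 (UniProt Q8IDJ8). Compounds at 30 µM. Higher reads as stronger inhibition, judged from the few compounds that gave an IC50. Size under these conditions: about 69,000 compounds, about 49 of them at 50% or above in at least one test.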
MtTrpRS: 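Tryptophan-tRNA ligase, Mycobacterium tuberculosis (UniProt P9WFT3). Enzyme assay of tryptophanyl-tRNA synthetase; the read-out is not stated. Tested at 10 µM. Direction is not recorded; retested compounds ran higher, which suggests that high means inhibition. Of about 65,000 compounds tested this way, about 64 (0.098%) reached 50% or more in at least one test.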
LiHisRS: 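Enzyme assay of histidyl-tRNA synthetase; the read-out is not stated. Target: Histidine-tRNA ligase, Leishmania infantum (UniProt A4I591). Concentration: 30 µM. Direction is inferred from retests: higher values go with stronger inhibition. The assay is labelled LdHisRS but filed under L. infantum. Size under these conditions: about 69,000 compounds, about 410 of them at 50% or above in at least one test.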
TcHisRS: 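Enzyme assay of histidyl-tRNA synthetase; the read-out is not stated. Target: Histidine-tRNA ligase, Trypanosoma cruzi CL Brener (UniProt Q4DA54). Tested at 30 µM. The record gives no direction; compounds that gave an IC50 in retests scored well above the rest, so higher reads as stronger inhibition. About 69,000 compounds were tested under these conditions; 0.045% (about 31) showed 50% or more at least once.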
Leishmania in macrophages: 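Cell assay of Leishmania donovani living inside macrophages; the read-out is not stated. Concentration: 30 µM. Direction is inferred from retests: higher values go with stronger inhibition. Of about 69,000 compounds tested this way, about 1,000 (1.5%) reached 50% or more in at least one test.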

| SMILES | ClpP1P2 | PfKRS1 | MtTrpRS | LiHisRS | TcHisRS | Leishmania in macrophages |
|---|---|---|---|---|---|---|
| `[H][C@]12CCN(C(=O)Cc3ccc4c(c3)CCCC4)CC[C@]1([H])N(C)C(=O)CO2` | - | - | - | - | - | 5.39% |
| `CCCn1cc(C(=O)NCCc2ccncc2)c(C)n1` | -4.439% | 3.802% | -2.27% | 9.167% | 6.579% | 3.523% |
| `Cc1cc(C[C@@H]2COC[C@H]2NCc2ccc(Cl)c(Cl)c2)on1.O=C(O)CC(O)(CC(=O)O)C(=O)O` | - | - | - | - | - | -1.522% |
| `COc1cccc(OCC2CCCN(C(=O)c3ncc(F)cc3F)C2)c1` (stereo not drawn) | -13.5% | 0.1767% | 1.354% | 12.8% | 2.941% | 9.755% |
| `COc1cc(N2CC[C@@H]3O[C@@H](C(=O)NC(C)C)C[C@@H]32)ncn1` | -10.61% | 2.996% | -6.472% | 8.333% | 5.714% | - |
| `CCNC(=O)N1C[C@@H](NC(C)=O)[C@H](c2ccc(C)o2)C1` | -3.426% | 2.969% | 2.74% | 10.42% | 15.19% | 2.233% |
| `CCC(CO)N(Cc1ccccn1)Cc1c[nH]nc1-c1ccc(F)cc1` (stereo not drawn) | -9.69% | 2.946% | -3.846% | 7.895% | 6.145% | 8.879% |
| `OC1CCN(Cc2c(C3CCCNC3)[nH]c3ncccc23)CC1` (stereo not drawn) | 2.748% | 8.13% | -2.759% | 16.67% | 1.622% | - |
| `NC(=O)CN(Cc1ncc(-c2ccccc2)o1)C1CCCC1` | -1.735% | 5.412% | -3.17% | 9.326% | 3.867% | -17.47% |
| `COc1cccc2sc(N(C)CC(=O)NCc3nc(C)no3)nc12` | -7.937% | 4.892% | -1.417% | 15.05% | 7.772% | 3.743% |
| `CCN1CCn2c(C)cnc2C12CCN(C(=O)N(C)C)CC2` | 3.841% | 0.62% | -2.653% | 17.43% | 2.404% | - |
| `CCc1nc(CNC(C)c2cccc(N3CCCC3=O)c2)cs1` (stereo not drawn) | -7.506% | 4.954% | -8.005% | 9.821% | 6.897% | - |
| `COCCN1CCO[C@@H]2CN(S(=O)(=O)c3cccnc3)C[C@@H]2C1` | -13.27% | 6.705% | - | 5.769% | 9.497% | - |
| `CN(CCN1CCCCC1=O)Cc1cc2cc3c(cc2[nH]c1=O)OCO3` | -206.9% | 3.915% | -4.052% | 14.17% | 2.899% | 22.71% |
| `CCc1nc(C2CCCN2CC(=O)Nc2cc(C)no2)no1` (stereo not drawn) | 10.07% | 0.2492% | 1.947% | 8.696% | 2.874% | 16.7% |
| `CC(Oc1cccc(F)c1)C(=O)N(CC(N)=O)C1CCCC1` (stereo not drawn) | -7.332% | 2.047% | -0.6734% | 16.13% | 7.143% | -8.935% |
| `COC1CCN(c2ccc(F)cc2CN(C)C(=O)c2cc[nH]n2)CC1` | 0.6804% | 0.3986% | 1.639% | 13.33% | 3.478% | -13.9% |
| `COc1ccc(CN(C)C(=O)CCc2c(C)nc(C)[nH]c2=O)cc1OC` | 0.8182% | -6.485% | -1.327% | 31.73% | 4.065% | 26.71% |
| `Cc1cc(N2CCC(c3ncc[nH]3)CC2)nc(N)n1` | -10.09% | 1.07% | -2.353% | 24.1% | 1.657% | 18.65% |
| `COCCNC(=O)[C@H]1C[C@@H]2CCN(Cc3ccncc3)C[C@H]2O1` | -10.32% | 0.4482% | -0.6206% | 18.06% | 9.524% | - |
| `CN(C)c1ccc(C(=O)N2CCN(CC(C)(C)O)CC2)nn1` | -16.25% | -0.4499% | -4.283% | 7.143% | -5.187% | 0.7706% |
| `Cc1cc(C)c2nc(CN3CCOCC(O)C3)cc(O)c2c1` (stereo not drawn) | -2.699% | 3.743% | -1.458% | 13.89% | 6.122% | 14.49% |
| `Cc1nc(CNC(=O)Nc2cc(F)ccc2OC(F)F)no1` | -3.845% | 8.719% | 2.21% | 21.52% | 1.293% | 7.046% |
| `CCOCc1nc2c(c(NCCNC(C)=O)n1)CCN(C(C)=O)CC2` | -8.058% | -3.435% | -3.987% | 0% | 1.681% | 2.365% |
| `CCc1ncc(CN2CCc3nc4sc(C)cc4c(=O)n3CC2)cn1` | 17.98% | 1.38% | - | 14.43% | 11.11% | -17.23% & 9.612% |
| `CC(=O)c1nn(-c2ccccc2Cl)c(C)c1C(C)=O` | -8.528% | 1.547% | -1.848% | 3.297% | 1.031% | 1.775% |
| `CN(Cc1ccco1)C(=O)CN1CCc2ccccc2C1` | 0.9181% | 5.747% | 2.081% | 14.71% | 3.704% | 21.45% |
| `CCN1C(=O)C[C@@H]2[C@@H]1CCN2S(=O)(=O)c1ccc(OC)cc1` | -4.106% | 3.419% | -1.698% | 1.942% | 0.9709% | - |
| `Cc1c(C(=O)NCC(C)C)nnn1-c1cccc2c1CCN(C)C2` | -7.037% | 9.994% | -5.826% | 22.86% | 3.261% | -4.958% |
| `CSCC[C@@H](CO)n1ccnc1-c1nccn1C` | -7.288% | 4.667% | 0.6721% | 16.67% | 10.59% | 14.04% |
| `COCCN1CCc2c(cnc(-c3ccoc3)c2C(=O)O)C1` | -5.134% | 4.863% | 0.1744% | 10.91% | 10.74% | - |
| `CCc1nc(CCNC(=O)C2CCOC2)sc1C` (stereo not drawn) | -6.411% | 5.792% | 8.255% | 9.615% | -3.743% | 2.326% |
| `CC(=O)N1CC(=O)N(c2cccnc2)CC12CCN(Cc1nccs1)C2` (stereo not drawn) | 2.027% | 7.382% | -3.743% | 20% | 1.961% | - |
| `O=C1NCC2(CCCN(CCc3ccccc3)C2)Oc2ccccc21` (stereo not drawn) | 7.876% | -3.537% | -3.428% | 13.89% | 7.027% | -1.38% |
| `CN(CCS(C)(=O)=O)C1CCCN(Cc2noc(C3CC3)n2)C1` (stereo not drawn) | -3.437% | -2.942% | -3.522% | -17.98% | -0.5025% | -15.61% |
| `CC(CCc1ccccc1)NC(=O)CNCCCN1CCOCC1` (stereo not drawn) | -5.986% | -3.366% | 7.188% | 16.42% | -2.128% | - |
| `O=C(O)C(F)(F)F.O=C(O)C(F)(F)F.[H][C@@]12C[C@@H](OCc3ccccn3)CN1CCN(c1ncc(C)cn1)C2` | - | - | - | - | - | 6.192% |
| `CCOc1ccc(NC2CCN(C(C)C)C2=O)cn1` (stereo not drawn) | -1.639% | 2.621% | 2.2% | 37.1% | 11.49% | -14.91% |
| `CN(C(=O)NCc1ccncc1)C1CCN(c2ccccc2)C1=O` (stereo not drawn) | 1.122% | 8.598% | 0.9434% | 4% | 1.141% | -6.265% |
| `CCOCCC(=O)N1CCN(CC(C)O)CC1` (stereo not drawn) | -9.852% | -4.847% | 10.26% | 9.91% | 0% | -27.01% |
| `O=C(O)Cn1ccc(=O)c2ccc(Cl)cc21` | 1.112% | 1.144% | 2.006% | 12.09% | 10.89% | -23.68% |
| `CN(C)Cc1cn(-c2ccccc2C(=O)NCC2CCCCN2C)cn1` (stereo not drawn) | -9.655% | -0.5936% | 9.073% | 9.79% | 2.825% | -17.58% |
| `CCCS(=O)(=O)N1CCn2cc(CNc3ccccn3)nc2C1.O=C(O)C(F)(F)F` | - | - | - | - | - | 4.328% |
| `COCc1noc(-c2cc(Cl)c3c(c2)OCO3)n1` | 0.369% | 4.931% | 2.719% | 1.205% | -2.439% | -15.75% |
| `COCCN1CCC2(CCCN(C(=O)c3ccoc3C)C2)C1=O` (stereo not drawn) | -10.44% | 0.9735% | -1.365% | -1.37% | 5.941% | -28.99% |
| `CCC[C@@H]1CN(C(=O)c2c(F)ccc(C)c2Cl)C[C@H]1C(=O)O` | -4.457% | -0.07777% | -2.093% | 1.493% | 0% | 4.445% |
| `O=C(NCC1(c2ccc(F)cc2)CCC1)N1CCC2(CCOCC2)C1` | 0.6931% | -3.037% | 8.06% | -3.175% | 5.051% | -27.21% |
| `CCc1nc(C2CCCN(C(=O)c3ccc(OC)cc3)C2)no1` (stereo not drawn) | -5.64% | -0.1355% | -6.897% | 4.425% | 2.041% | 15.9% |
| `CN1CCCN(C(C(=O)O)c2ccc3c(c2)OCO3)CC1` (stereo not drawn) | 1.744% | 5.428% | 9.135% | 10.42% | 10.06% | 20.65% |
| `COc1cccc(C(O)C(=O)N(C)CCc2ccccn2)c1` (stereo not drawn) | 3.913% | 6.084% | -2.447% | 15.66% | 3.659% | -17.53% |
| `COCCN1C(=O)CC[C@]12CC[C@@H](NC(=O)c1cc(C)on1)CC2` | -13.69% | 7.113% | 8.003% | -83.5% | -44.66% | 4.548% |
| `COCCN1CCC(CN(CC2CCCO2)C(=O)Cc2cccs2)CC1` (stereo not drawn) | -4.082% | 3.198% | 0.2935% | 11.24% | 3.518% | 8.21% |
| `O=C(O)C(F)(F)F.[H][C@@]12OCCN(Cc3ccco3)[C@@]1([H])CC[C@H]2OCC1CC1` | - | - | - | - | - | 28.05% |

The last 7 entries again:

SMILES,ClpP1P2,PfKRS1,MtTrpRS,LiHisRS,TcHisRS,Leishmania in macrophages
O=C(NCC1(c2ccc(F)cc2)CCC1)N1CCC2(CCOCC2)C1,0.6931%,-3.037%,8.06%,-3.175%,5.051%,-27.21%
CCc1nc(C2CCCN(C(=O)c3ccc(OC)cc3)C2)no1 (stereo not drawn),-5.64%,-0.1355%,-6.897%,4.425%,2.041%,15.9%
CN1CCCN(C(C(=O)O)c2ccc3c(c2)OCO3)CC1 (stereo not drawn),1.744%,5.428%,9.135%,10.42%,10.06%,20.65%
COc1cccc(C(O)C(=O)N(C)CCc2ccccn2)c1 (stereo not drawn),3.913%,6.084%,-2.447%,15.66%,3.659%,-17.53%
COCCN1C(=O)CC[C@]12CC[C@@H](NC(=O)c1cc(C)on1)CC2,-13.69%,7.113%,8.003%,-83.5%,-44.66%,4.548%
COCCN1CCC(CN(CC2CCCO2)C(=O)Cc2cccs2)CC1 (stereo not drawn),-4.082%,3.198%,0.2935%,11.24%,3.518%,8.21%
O=C(O)C(F)(F)F.[H][C@@]12OCCN(Cc3ccco3)[C@@]1([H])CC[C@H]2OCC1CC1,-,-,-,-,-,28.05%